Test results as given in patent US20250283871A1, “COMPOSITIONS AND METHODS FOR MODULATING THE INTERACTION BETWEEN SS18-SSX FUSION ONCOPROTEIN AND NUCLEOSOMES” (Dana-Farber Cancer Institute, Inc., priority 2020, published 2025).

B1: PHF10 (protein, UniProt Q8WUB8 2-498, looked up)
PHD finger protein 10: AAAAGPGAALSPRPCDSDPATPGAQSPKDDNEDNSNDGTQPSKRRRMGSGDSSRSCETSSQDLGFSYYPAENLIEYKWPPDETGEYYMLQEQVSEYLGVTSFKRKYPDLERRDLSHKEKLYLRELNVITETQCTLGLTALRSDEVIDLMIKEYPAKHAEYSVILQEKERQRITDHYKEYSQMQQQNTQKVEASKVPEYIKKAAKKAAEFNSNLNRERMEERRAYFDLQTHVIQVPQGKYKVLPTERTKVSSYPVALIPGQFQEYYKRYSPDELRYLPLNTALYEPPLDPELPALDSDGDSDDGEDGRGDEKRKNKGTSDSSSGNVSEGESPPDSQEDSFQGRQKSKDKAATPRKDGPKRSVLSKSVPGYKPKVIPNAICGICLKGKESNKKGKAESLIHCSQCENSGHPSCLDMTMELVSMIKTYPWQCMECKTCIICGQPHHEEEMMFCDMCDRGYHTFCVGLGAIPSGRWICDCCQRAPPTPRKVGRRGKNSKEG
B2: CHTOP (protein, UniProt Q9Y3Y2 2-248, looked up)
Chromatin target of PRMT1 …: AAQSAPKVVLKSTTKMSLNERFTNMLKNKQPTPVNIRASMQQQQQLASARNRRLAQQMENRPSVQAALKLKQSLKQRLGKSNIQARLGRPIGALARGAIGGRGLPIIQRGLPRGGLRGGRATRTLLRGGMSLRGQNLLRGGRAVAPRMGLRRGGVRGRGGPGRGGLGRGAMGRGGIGGRGRGMIGRGRGGFGGRGRGRGRGRGALARPVLTKEQLDNQLDAYMSKTKGHLDAELDAYMAQTDPETND
B3: STOML2 (protein, UniProt Q9UJZ1 29-356, looked up)
Stomatin-like protein 2, …: SSGLPRNTVVLFVPQQEAWVVERMGRFHRILEPGLNILIPVLDRIRYVQSLKEIVINVPEQSAVTLDNVTLQIDGVLYLRIMDPYKASYGVEDPEYAVTQLAQTTMRSELGKLSLDKVFRERESLNASIVDAINQAADCWGIRCLRYEIKDIHVPPRVKESMQMQVEAERRKRATVLESEGTRESAINVAEGKKQAQILASEAEKAEQINQAAGEASAVLAKAKAKAEAIRILAAALTQHNGDAAASLTVAEQYVSAFSKLAKDSNTILLPSNPGDVTSMVAQAMGVYGALTKAPVPGTPDSLSSGSSRDVQGTDASLDEELDRVKMS
B4: ZNF281 (protein, UniProt Q9Y2X9 1-895, looked up)
Zinc finger protein 281: MKIGSGFLSGGGGTGSSGGSGSGGGGSGGGGGGGSSGRRAEMEPTFPQGMVMFNHRLPPVTSFTRPAGSAAPPPQCVLSSSTSAAPAAEPPPPPAPDMTFKKEPAASAAAFPSQRTSWGFLQSLVSIKQEKPADPEEQQSHHHHHHHHYGGLFAGAEERSPGLGGGEGGSHGVIQDLSILHQHVQQQPAQHHRDVLLSSSSRTDDHHGTEEPKQDTNVKKAKRPKPESQGIKAKRKPSASSKPSLVGDGEGAILSPSQKPHICDHCSAAFRSSYHLRRHVLIHTGERPFQCSQCSMGFIQKYLLQRHEKIHSREKPFGCDQCSMKFIQKYHMERHKRTHSGEKPYKCDTCQQYFSRTDRLLKHRRTCGEVIVKGATSAEPGSSNHTNMGNLAVLSQGNTSSSRRKTKSKSIAIENKEQKTGKTNESQISNNINMQSYSVEMPTVSSSGGIIGTGIDELQKRVPKLIFKKGSRKNTDKNYLNFVSPLPDIVGQKSLSGKPSGSLGIVSNNSVETIGLLQSTSGKQGQISSNYDDAMQFSKKRRYLPTASSNSAFSINVGHMVSQQSVIQSAGVSVLDNEAPLSLIDSSALNAEIKSCHDKSGIPDEVLQSILDQYSNKSESQKEDPFNIAEPRVDLHTSGEHSELVQEENLSPGTQTPSNDKASMLQEYSKYLQQAFEKSTNASFTLGHGFQFVSLSSPLHNHTLFPEKQIYTTSPLECGFGQSVTSVLPSSLPKPPFGMLFGSQPGLYLSALDATHQQLTPSQELDDLIDSQKNLETSSAFQSSSQKLTSQKEQKNLESSTGFQIPSQELASQIDPQKDIEPRTTYQIENFAQAFGSQFKSGSRVPMTFITNSNGEVDHRVRTSVSDFSGYTNMMSDVSEPCSTRVKTPTSQSYR

Test system: BAF complex subunits and histone proteins
Assay: Mass spectrometry proteomics of purified HA-SS18 WT and HA-SS18-SSX1 complexes (Tables 5A-5E)
Design: species or system human
Details: HEK-293T
[1] = HA-SS18SSX1_CHR_peptides: proteins found in HA-SS18-SSX1 BAF complex purification from solubilized chromatin (CHR)
[2] = HA-SS18WT_NE_peptides: proteins co-purified with HA-SS18 WT from nuclear extract (NE)
[3] = HA-SS18SSX1 purification, NE (soluble nuclear extract) fraction, peptides per identified protein
[4] = HA-SS18WT_CHR_peptides: protein identified in HA-SS18 WT BAF complex purification from nuclease-treated solubilized chromatin (CHR)

| Molecule | Total (peptides) [1] | Unique (peptides) [1] | Total (peptides) [2] | Unique (peptides) [2] | Total (total peptides) [3] | Unique (unique peptides) [3] | Total (total peptides) [4] | Unique (unique peptides) [4] |
| --- | --- | --- | --- | --- | --- | --- | --- | --- |
| B1 | 1 | 1 | 1 | 1 | – | – | – | – |
| B2 | 1 | 1 | – | – | – | – | – | – |
| B3 | 1 | 1 | 2 | 2 | 4 | 4 | 1 | 1 |
| B4 | 1 | 1 | 2 | 2 | – | – | – | – |
